Reference: PubChem BioAssay AID720504 (National Center for Advancing Translational Sciences (NCATS), 2013)
Hit rate of the full screen: of about 360,000 compounds, about 10,000 (2.8%) were called active. The inconclusive results got no clear call from the source; some entries with a clear call stand among them for comparison. Calls come from the whole dose curve; as a rule, active = well fitted inhibition curve with a large enough effect; inconclusive = small, poorly fitted or top-dose-only effect; inactive = flat fitted curve, though single readings scatter. Potencies beside an inconclusive call are fits to weak or partial responses and may not hold up.

Sequences of proteins named here, by UniProt entry; tags and fusion partners are left off.
UniProt P53350, whole entry, looked up: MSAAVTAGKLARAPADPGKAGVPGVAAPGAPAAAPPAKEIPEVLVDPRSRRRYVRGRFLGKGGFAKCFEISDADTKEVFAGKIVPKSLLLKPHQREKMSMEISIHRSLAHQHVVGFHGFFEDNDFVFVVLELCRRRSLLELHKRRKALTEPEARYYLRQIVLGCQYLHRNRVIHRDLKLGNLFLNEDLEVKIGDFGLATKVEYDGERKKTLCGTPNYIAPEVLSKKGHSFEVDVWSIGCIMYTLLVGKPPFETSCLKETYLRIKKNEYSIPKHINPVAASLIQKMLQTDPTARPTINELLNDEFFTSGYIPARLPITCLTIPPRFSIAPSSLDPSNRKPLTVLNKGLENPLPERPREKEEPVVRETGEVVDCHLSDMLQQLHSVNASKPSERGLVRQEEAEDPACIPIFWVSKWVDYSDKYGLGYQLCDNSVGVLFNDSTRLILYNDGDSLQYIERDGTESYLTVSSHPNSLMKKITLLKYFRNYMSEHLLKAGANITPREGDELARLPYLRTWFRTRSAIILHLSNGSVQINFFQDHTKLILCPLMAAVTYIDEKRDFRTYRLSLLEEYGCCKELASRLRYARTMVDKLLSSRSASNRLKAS

molecular target: Serine/threonine-protein kinase PLK1 (Homo sapiens) (UniProt P53350); assay: qHTS for Inhibitors of PLK1-PDB (polo-like kinase 1 - polo-box domain): Primary Screen; conditions: Plk1 PBD binding of FITC phosphopeptide, fluorescence polarization; note: nearly all actives have a fitted effect of over 65% in size; for max response, negative = inhibition: series mostly up to about 57 µM
% is set by controls: 0 for no effect and ±100 for the full control effect; potency is the fitted concentration of half-maximal effect.

| Compound | max response, negative = inhibition | Potency |
| --- | --- | --- |
| CCn1c2ccc(OC)cc2c2nc3ccccc3nc21 | inactive: -15.1% |  |
| CCOC(=O)CSc1nnc(NCC(=O)OC)c(=O)[nH]1 |  | inconclusive: 23.8 µM [inhibitor, partial curve] |
| O=C(NCCO)c1ccc2c(c1)S(=O)(=O)c1ccccc1C2=O | inactive: -8.36% |  |
| Cn1nnc(NC(=S)NC(=O)c2cccc3c(Br)cccc23)n1 |  | inconclusive: 18.9 µM [inhibitor, single point] |
| Cc1csc(=O)n1CCC(=O)OCC(=O)NNC(=O)c1ccccc1 |  | inconclusive: 23.8 µM [inhibitor, single point] |
| COC(=O)CCC(=O)OC1(C)C(=O)C2=CN(CCc3ccccn3)C(c3ccc(OC)cc3)=CC2=C(Br)C1=O (stereo unspecified) |  | inconclusive: 23.8 µM [inhibitor, partial curve] |
| CCOC(=O)C1(C)Oc2ccccc2C(C(=O)OC)=C1C(=O)OC (stereo unspecified) |  | inconclusive: 23.8 µM [inhibitor, single point] |
| O=C(CN1CCC(Cc2ccccc2)CC1)N1CCc2ccccc2C1 |  | active: 26.7 µM |
| COC(=O)c1[nH]c2ccc(F)cc2c1NS(=O)(=O)c1ccc(OC)cc1OC |  | inconclusive: 23.8 µM [inhibitor, partial curve, poor fit] |
| CCN(CC(=O)NCc1cccs1)C(=O)c1ccc(N(C)S(=O)(=O)c2ccc(C)cc2)cc1 | inactive: -12.8% |  |
| CC1CN(C(=O)CSc2nnc3c(Cl)cc(Cl)cn23)CC(C)O1 (stereo unspecified) | inactive: -6.98% |  |
| COc1ccc(CN2CC(=O)N(c3ccc(C)cc3C)C2=S)cc1OC |  | inconclusive: 37.7 µM [inhibitor, single point] |
| COc1cc2ccccc2cc1C(=O)NC1CCC(C)CC1 (stereo unspecified) | inactive: -3.95% |  |
| C[n+]1ccccc1/C=C/c1ccc(C#N)cc1 |  | inconclusive: 37.7 µM [inhibitor, single point] |
| Cc1ccc(Nc2nc(-c3ccccc3)cs2)nc1 | inactive: -2.95% |  |
| N/C(=N\OC(=O)c1ccc([N+](=O)[O-])cc1)c1ccccn1 |  | inconclusive: 37.7 µM [inhibitor, single point] |
| COc1cc(C(=O)NCCNC(=O)c2ccco2)cc(OC)c1OC |  | active: 26.7 µM |
| CCCOc1cccc(C2C(C(=O)c3ccc(C)o3)=C(O)C(=O)N2c2nc(C)c(C(C)=O)s2)c1 (stereo unspecified) |  | inconclusive: 23.8 µM [inhibitor, single point] |
| COc1ccc(N2C(=O)C(Cl)=C(Oc3cccc(OC)c3)C2=O)cc1 |  | active: 1.89 µM |
| CC(=O)N(C)c1nc(N)n(-c2ccccc2)n1 |  | inconclusive: 8.44 µM [inhibitor, single point] |
| C#CCOc1c(Br)cc(/C=C2/C(=O)ON=C2C)cc1OCC |  | active: 4.23 µM |
| O=c1oc(-c2cccc([N+](=O)[O-])c2)nc2ccccc12 |  | inconclusive: 9.47 µM [inhibitor, partial curve] |
| Cc1cc(Br)ccc1NC(=O)CN(C)C(=O)CCSc1ccc(F)cc1 |  | active: 26.7 µM |

| Compound | max response, negative = inhibition | Potency |
| --- | --- | --- |
| CCOC(=O)c1c(NC2OC(=O)c3c2ccc(OC)c3OC)sc(C(=O)OC(C)(C)C)c1C (stereo unspecified) |  | active: 23.8 µM |
| CCc1ccc(Nc2n[n+](-c3ccccc3)c(-c3ccc(SC)cc3)s2)cc1 |  | inconclusive: 37.7 µM [inhibitor, single point] |
| CC(C)(C)NC(=O)C(c1ccc(C(F)(F)F)cc1)n1c(=O)c(-c2cc3ccccc3[nH]2)nc2ccccc21 (stereo unspecified) | inactive: -4.86% |  |
| COc1ccccc1N=Nc1c(O)[nH]c2ccc(Br)cc12 |  | inconclusive: 29.9 µM [inhibitor, single point] |
| Cc1cc(C(=O)N/N=C/c2ccc([N+](=O)[O-])o2)c(C)o1 | inactive: -7.97% |  |
| COc1cc(NC(=O)CSc2nc3c(C)ccc(C)c3cc2C)c(C(=O)O)cc1OC |  | inconclusive: 37.7 µM [inhibitor, single point] |
| COc1ccccc1NC(=O)COC(=O)c1cc2c(s1)CCC2 |  | inconclusive: 18.9 µM [inhibitor, single point] |
| CCCCNCCCOc1cccc(Cl)c1Cl | inactive: -13.1% |  |
| O=C(NCc1ccccc1)c1nc(S(=O)(=O)Cc2ccccc2)ncc1Cl |  | inconclusive: 15 µM [inhibitor, partial curve] |
| CCCCCCCCCC(=O)N1c2ccccc2NC(=O)C1CC(=O)Nc1ccc(C(=O)O)cc1 (stereo unspecified) |  | inconclusive: 21.2 µM [inhibitor, single point] |
| CCNC(=O)COc1ccc(/C=C2\COc3ccccc3C2=O)cc1OC | inactive: -22.3% |  |
| S=C(NCc1ccccc1)NCc1ccco1 |  | inconclusive: 29.9 µM [inhibitor, partial curve] |
| CCOC(=O)c1c(N2C(=O)C=CC2=O)sc(C)c1C |  | active: 5.32 µM |
| Cc1cc(NS(=O)(=O)c2ccc(NC(=O)c3ccc(Br)o3)cc2)nc(C)n1 |  | inconclusive: 21.2 µM [inhibitor, partial curve] |
| COCCCN1C(=O)C(O)=C(C(C)=O)C1c1ccccn1 (stereo unspecified) | inactive: -1.36% |  |
| COc1ccc2c(-c3ccccc3)cc(SC(C)C(N)=O)nc2c1 (stereo unspecified) |  | inconclusive: 23.8 µM [inhibitor, partial curve] |
| Cc1cc(C)cc(C(=O)N(C)C2CCCN(Cc3ccccc3F)C2)c1 (stereo unspecified) | inactive: -7.53% |  |
| COc1cc(NC(=S)NNC(=O)CC(C)C)c(OC)cc1Cl |  | inconclusive: 29.9 µM [inhibitor, single point] |
| CCOC(=O)C1(C)CCCN1C(=O)c1snnc1C (stereo unspecified) | inactive: -0.457% |  |
| CN(CC(=O)Nc1ccccc1Cl)C(=O)c1ccc(-c2cccc(C(F)(F)F)c2)o1 |  | inconclusive: 26.7 µM [inhibitor, single point] |
| CCOC(=O)c1cccc(NC(=O)C2CCCN(S(=O)(=O)c3c(C)nn(C)c3C)C2)c1 (stereo unspecified) |  | inconclusive: 26.7 µM [inhibitor, single point] |
| Cc1cccc(OCc2nnc(N)s2)c1 |  | active: 26.7 µM |
| CCN(CC)S(=O)(=O)c1ccc(N2CCOCC2)c(NC(=O)C2CSC3(C)CCC(=O)N23)c1 (stereo unspecified) |  | inconclusive: 9.47 µM [inhibitor, partial curve] |

11 entries from above, arranged by count of non-hydrogen atoms, ascending.

| Compound | max response, negative = inhibition | Potency |
| --- | --- | --- |
| Cc1cccc(OCc2nnc(N)s2)c1 |  | active: 26.7 µM |
| CC(=O)N(C)c1nc(N)n(-c2ccccc2)n1 |  | inconclusive: 8.44 µM [inhibitor, single point] |
| Cc1ccc(Nc2nc(-c3ccccc3)cs2)nc1 | inactive: -2.95% |  |
| Cc1cc(C(=O)N/N=C/c2ccc([N+](=O)[O-])o2)c(C)o1 | inactive: -7.97% |  |
| N/C(=N\OC(=O)c1ccc([N+](=O)[O-])cc1)c1ccccn1 |  | inconclusive: 37.7 µM [inhibitor, single point] |
| CC1CN(C(=O)CSc2nnc3c(Cl)cc(Cl)cn23)CC(C)O1 (stereo unspecified) | inactive: -6.98% |  |
| O=C(NCc1ccccc1)c1nc(S(=O)(=O)Cc2ccccc2)ncc1Cl |  | inconclusive: 15 µM [inhibitor, partial curve] |
| COC(=O)c1[nH]c2ccc(F)cc2c1NS(=O)(=O)c1ccc(OC)cc1OC |  | inconclusive: 23.8 µM [inhibitor, partial curve, poor fit] |
| CCOC(=O)c1cccc(NC(=O)C2CCCN(S(=O)(=O)c3c(C)nn(C)c3C)C2)c1 (stereo unspecified) |  | inconclusive: 26.7 µM [inhibitor, single point] |
| CCN(CC(=O)NCc1cccs1)C(=O)c1ccc(N(C)S(=O)(=O)c2ccc(C)cc2)cc1 | inactive: -12.8% |  |
| COC(=O)CCC(=O)OC1(C)C(=O)C2=CN(CCc3ccccn3)C(c3ccc(OC)cc3)=CC2=C(Br)C1=O (stereo unspecified) |  | inconclusive: 23.8 µM [inhibitor, partial curve] |
